Literature values in PMC7343282, “Tissue Distribution of Several Series of Cationic Surfactants in Rainbow Trout (Oncorhynchus mykiss) Following Exposure via Water” (Environmental Science & Technology, 2020).

Columns and labels:
fathead minnows = conditions: cited from earlier work
killifish = conditions: cited from earlier work

CN(C)CCOC(c1ccccc1)c1ccccc1 [diphenhydramine]
Vd, plasma concentration based (fathead minnows): 3.0 L kg^–1
Vd, plasma concentration based (killifish): 0.32–0.48 L kg^–1
